Several values for one entry are separate records, joined by “and”; a condition that tells them apart may be missing. Equal entries are not always repeated. At least one peptide structure holds a part that was inferred or is arguable (an end, a ring closure or a residue).
Legend:
human GLP-1R = human GLP-1R (Homo sapiens, UniProt P43220); assay: Agonist activity against GLP-1R, cAMP HTRF in CHO-K1/GLP-1R/CRE-luc cells; conditions: comparison of EC50 at human GLP-1R and human GIPR
[1] = Body weight of diet-induced-obesity mice after subcutaneous administration; assay type: in vivo, C57BL/6 mice; conditions: for rate of body weight change: DIO mice, 10 nmol/kg s.c. every 3 days
Protocol: (§1) High-fat food-induced-obesity male C57BL/6 mice (weighing 35-55 g, aged 10-12 weeks, purchased from Shanghai Jiesijie Laboratory Animal Co., Ltd.) were tested. […] According to the experimental design, the body weight of each mouse was measured and recorded on day 0, day 3, day 6, and so on to day 27, the average body weight of each group of mice was calculated, and body weight change curves were plotted by taking the body weight on the first day as the standard. At the end, the fat and other visceral organs of each part of the mice were taken out and weighed, and the viscera/brain ratio for fat in each part of each mouse was calculated. The effect of the drug on the fat was determined by comparing the change in the viscera/brain ratio for fat of different parts of each group of mice.

By UniProt entry, the sequences of proteins in these tests, tags left out. Residues count along the entry.
UniProt P43220, 24-463: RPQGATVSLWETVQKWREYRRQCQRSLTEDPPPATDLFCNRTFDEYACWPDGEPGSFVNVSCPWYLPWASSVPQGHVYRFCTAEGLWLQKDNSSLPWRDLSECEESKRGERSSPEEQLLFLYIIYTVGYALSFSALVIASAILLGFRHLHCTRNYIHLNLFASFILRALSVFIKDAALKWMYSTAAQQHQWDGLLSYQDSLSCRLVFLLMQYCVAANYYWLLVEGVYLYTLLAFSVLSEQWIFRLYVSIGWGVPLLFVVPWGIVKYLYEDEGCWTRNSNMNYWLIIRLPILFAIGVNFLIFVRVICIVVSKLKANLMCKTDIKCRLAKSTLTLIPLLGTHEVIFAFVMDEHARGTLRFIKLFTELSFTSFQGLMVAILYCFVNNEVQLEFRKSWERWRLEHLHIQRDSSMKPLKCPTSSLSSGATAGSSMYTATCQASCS

[2] = Blood glucose in normal mice after single subcutaneous administration and intraperitoneal glucose; assay type: in vivo, C57BL/6 mice; conditions: 10 nmol/kg s.c.; for Blood glucose: glucose i.p. 18 h later, mean ± SD
Protocol: 18 h later, a glucose solution at a concentration of 0.2 g/mL was intraperitoneally injected. Blood glucose values were measured by collecting blood from the tail of mice at time points of 0 min, 15 min, 30 min, 60 min, and 120 min according to the experimental design. The specific procedures were as follows: the mouse was physically immobilized with the tail exposed, a little part was cut off at the tail end, then the tail was squeezed to bleed, and blood glucose was determined using a Roche active glucometer after the 1st drop of blood was discarded. The area under the blood glucose curve (AUC) was calculated from the results of all time points.

[3] = Food intake of diet-induced-obesity (DIO) mice; assay type: in vivo, C57BL/6 mice; conditions: 10 nmol/kg
Protocol: as §1
The food intake of mice in each group was measured daily during the experiment.

[4] = Glucose metabolism level of db/db mice (fasting and random blood glucose, glycated hemoglobin); assay type: in vivo, C57BL/KsJ-db/db mice; conditions: 100 nmol/kg s.c.
Protocol: Each administration group had 10 db/db mice. According to the experimental design, tail vein blood was collected by needle pricking on days 0, 7, 14, 21, and 28 and determined for fasting blood glucose levels with a glucometer and glucose dipsticks, and the mice were fasted 6 h prior to the blood collection at each time point. Tail vein blood was collected by needle pricking on days 3, 10, 17, 24, and 27 and randomly determined for blood glucose levels with a glucometer. Finally, at the end of the experiment on day 28, all the animals in the administration groups were subjected to 2-5% isoflurane inhalation anesthesia, and 100 μL of whole blood was collected through the orbit of each mouse using an EDTA-K2 anticoagulation tube and used for the determination of glycated hemoglobin.

CC[C@H](C)[C@H](NC(=O)[C@H](CC(C)C)NC(=O)[C@H](Cc1c[nH]c2ccccc12)NC(=O)[C@H](CCC(N)=O)NC(=O)[C@@H](NC(=O)[C@H](Cc1ccccc1)NC(=O)[C@H](C)NC(=O)[C@H](CCCCNC(=O)COCCOCCNC(=O)COCCOCCNC(=O)CC[C@H](NC(=O)CCCCCCCCCCCCCCCCCCC(=O)O)C(=O)O)NC(=O)[C@H](CCC(N)=O)NC(=O)[C@H](C)NC(=O)[C@@H](NC(=O)[C@H](CCCCN)NC(=O)[C@H](CC(=O)O)NC(=O)[C@H](CC(C)C)NC(=O)C(C)(C)NC(=O)[C@@H](NC(=O)[C@H](CO)NC(=O)[C@H](Cc1ccc(O)cc1)NC(=O)[C@H](CC(=O)O)NC(=O)[C@H](CO)NC(=O)[C@@H](NC(=O)[C@H](Cc1ccccc1)NC(=O)[C@@H](NC(=O)CNC(=O)[C@H](CCC(=O)O)NC(=O)C(C)(C)NC(=O)[C@@H](N)Cc1ccc(O)cc1)[C@@H](C)O)[C@@H](C)O)[C@@H](C)CC)[C@@H](C)CC)C(C)C)C(=O)N[C@@H](C)C(=O)NCC(=O)NCC(=O)N1CCC[C@H]1C(=O)N[C@@H](CO)C(=O)N[C@@H](CO)C(=O)NCC(=O)N[C@@H](C)C(=O)N1CCC[C@H]1C(=O)N1CCC[C@H]1C(=O)N1CCC[C@H]1C(=O)N[C@@H](CO)C(N)=O [LY3298176, reference compound]
preferential activity, GLP-1R versus GIPR (human GLP-1R): preferential activity against GIPR
rate of body weight change ([1]; day 0 (before administration)): 0%
rate of body weight change ([1]; day 1): −4.2%
rate of body weight change ([1]; day 2): −5.4%
rate of body weight change ([1]; day 3): −4.4%
rate of body weight change ([1]; day 4): −7.8%
rate of body weight change ([1]; day 5): −8.7%
rate of body weight change ([1]; day 6): −7.6%
rate of body weight change ([1]; day 7): −10.4%
rate of body weight change ([1]; day 8): −10.7%
rate of body weight change ([1]; day 9): −9.6%
rate of body weight change ([1]; day 10): −12.3%
rate of body weight change ([1]; day 11): −12.4%
rate of body weight change ([1]; day 12): −11.1%
rate of body weight change ([1]; day 13): −13.5%
rate of body weight change ([1]; day 14): −13.1%
rate of body weight change ([1]; day 15): −11.3%
rate of body weight change ([1]; day 16): −14.3%
rate of body weight change ([1]; day 17): −14.2%
rate of body weight change ([1]; day 18): −12.8%
rate of body weight change ([1]; day 19): −16.3%
rate of body weight change ([1]; day 20): −15.7%
rate of body weight change ([1]; day 21): −13.8%
rate of body weight change ([1]; day 22): −16.1%
rate of body weight change ([1]; day 23): −15.6%
rate of body weight change ([1]; day 24): −14.1%
rate of body weight change ([1]; day 25): −16.9%
rate of body weight change ([1]; day 26): −16%
rate of body weight change ([1]; day 27): −13.4%
rate of body weight change ([1]; day 28): −15.8%
body weight reduced ([1]; high-fat food-induced-obesity mice, 10 nmol/kg, day 27): about 13.4%
AUC (area under the blood glucose curve) ([2]; 0-120 min): 12.7 ± 1.6 mmol·h/L
Blood glucose ([2]; 0 min): 3.2 ± 0.2 mmol/L
Blood glucose ([2]; 15 min): 9.1 ± 1.3 mmol/L
Blood glucose ([2]; 30 min): 8 ± 1.4 mmol/L
Blood glucose ([2]; 60 min): 6.4 ± 1.0 mmol/L
Blood glucose ([2]; 120 min): 4.5 ± 0.7 mmol/L
daily food intake ([3]; day 1): 0.8 g
daily food intake ([3]; day 2): 1.2 g
daily food intake ([3]; day 3): 2.3 g
daily food intake ([3]; day 4): 0.9 g
daily food intake ([3]; day 5): 1.8 g
daily food intake ([3]; day 6): 2.3 g
daily food intake ([3]; day 7): 1.2 g
daily food intake ([3]; day 8): 1.7 g
daily food intake ([3]; day 9): 2.7 g
daily food intake ([3]; day 10): 1.2 g
daily food intake ([3]; day 11): 2 g
daily food intake ([3]; day 12): 2.8 g
daily food intake ([3]; day 13): 1.4 g
daily food intake ([3]; day 14): 2 g
daily food intake ([3]; day 15): 3 g
daily food intake ([3]; day 16): 1.2 g
daily food intake ([3]; day 17): 2.1 g
daily food intake ([3]; day 18): 2.9 g
daily food intake ([3]; day 19): 1.2 g
daily food intake ([3]; day 20): 2 g
daily food intake ([3]; day 21): 3.3 g
daily food intake ([3]; day 22): 1.4 g
daily food intake ([3]; day 23): 2.5 g
daily food intake ([3]; day 24): 2.8 g
daily food intake ([3]; day 25): 1.8 g
daily food intake ([3]; day 26): 2.4 g
daily food intake ([3]; day 27): 3.9 g
daily food intake ([3]; day 28): 1.4 g
Concentration of fasting blood glucose ([4]; Day 0, mean ± SD): 14.35 ± 1.41 mmol/L
Concentration of random blood glucose ([4]; Day 0, mean ± SD): 18.60 ± 1.52 mmol/L
Concentration of fasting blood glucose ([4]; Day 7, mean ± SD): 7.44 ± 0.76 mmol/L
Concentration of random blood glucose ([4]; Day 10, mean ± SD): 17.10 ± 1.96 mmol/L
Concentration of fasting blood glucose ([4]; Day 14, mean ± SD): 7.56 ± 0.88 mmol/L
Concentration of random blood glucose ([4]; Day 17, mean ± SD): 17.98 ± 1.37 mmol/L
Concentration of fasting blood glucose ([4]; Day 21, mean ± SD): 9.42 ± 1.67 mmol/L
Concentration of random blood glucose ([4]; Day 24, mean ± SD): 20.70 ± 1.27 mmol/L
Concentration of fasting blood glucose ([4]; Day 28, mean ± SD): 9.89 ± 1.28 mmol/L
Glycated hemoglobin ([4]; end of experiment day 28, mean ± SD): 4.58% and 4.58 ± 0.23 %

Reference: patent US20260014232A1, “Pharmaceutical Composition of GLP-1 and GIP Receptor Dual Agonist and Use Thereof” (Jiangsu Hengrui Pharmaceuticals Co., Ltd., priority 2021, published 2026)
